Test results as given in patent EP0730651B1.
Results are given in words; binding and its absence hold for the method and conditions named. Some results given as binding are weak or reduced against the parent protein; the word gives no strength.

Sequences of proteins named here, by UniProt entry; tags and fusion partners are left off. A change or cut given only in a name is not applied to a line headed by its entry. Residues count along the entry.
UniProt P16092: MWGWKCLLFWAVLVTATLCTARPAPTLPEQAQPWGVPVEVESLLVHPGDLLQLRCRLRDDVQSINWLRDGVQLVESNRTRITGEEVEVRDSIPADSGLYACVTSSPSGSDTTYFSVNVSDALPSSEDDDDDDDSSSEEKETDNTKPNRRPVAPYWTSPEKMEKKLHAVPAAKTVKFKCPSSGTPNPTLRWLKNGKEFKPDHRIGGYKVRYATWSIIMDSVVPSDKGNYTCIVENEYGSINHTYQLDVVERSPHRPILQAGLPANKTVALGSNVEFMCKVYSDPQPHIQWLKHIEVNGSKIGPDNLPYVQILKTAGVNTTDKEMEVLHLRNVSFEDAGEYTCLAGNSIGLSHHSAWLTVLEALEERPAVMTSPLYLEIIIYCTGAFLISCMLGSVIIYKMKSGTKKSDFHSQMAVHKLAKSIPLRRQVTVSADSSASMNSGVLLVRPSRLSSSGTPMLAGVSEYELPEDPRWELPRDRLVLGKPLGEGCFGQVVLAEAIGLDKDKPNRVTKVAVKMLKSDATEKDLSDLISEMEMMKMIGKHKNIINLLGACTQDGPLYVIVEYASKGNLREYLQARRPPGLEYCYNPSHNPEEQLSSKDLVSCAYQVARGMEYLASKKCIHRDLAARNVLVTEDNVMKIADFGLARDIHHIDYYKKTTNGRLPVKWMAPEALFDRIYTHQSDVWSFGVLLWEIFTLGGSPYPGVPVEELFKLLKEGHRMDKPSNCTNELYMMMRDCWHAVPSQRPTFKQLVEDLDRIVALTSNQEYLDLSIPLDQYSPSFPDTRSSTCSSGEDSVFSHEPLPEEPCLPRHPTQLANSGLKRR
FGF-receptor type 1 (FGFR1) present on NIH 3T3 cells: residues 22-822 of P16092
soluble FGF receptor 1 (FGFR-1; flg) alkaline phosphatase fusion (FRAP): residues 22-376 of P16092
UniProt P21803, residues 22-377: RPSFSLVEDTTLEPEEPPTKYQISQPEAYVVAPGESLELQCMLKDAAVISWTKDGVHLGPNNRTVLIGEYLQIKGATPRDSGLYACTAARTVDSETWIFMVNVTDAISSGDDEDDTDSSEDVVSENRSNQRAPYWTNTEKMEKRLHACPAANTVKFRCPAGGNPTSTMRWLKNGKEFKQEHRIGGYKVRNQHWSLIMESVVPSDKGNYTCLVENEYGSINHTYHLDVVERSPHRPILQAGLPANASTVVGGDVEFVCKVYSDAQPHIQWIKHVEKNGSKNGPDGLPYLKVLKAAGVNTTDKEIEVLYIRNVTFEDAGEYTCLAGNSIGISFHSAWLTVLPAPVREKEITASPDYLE

Tests used:
[1] = target: soluble FGF receptor 1 (FGFR-1; flg) alkaline phosphatase fusion (FRAP) (murine) (UniProt P16092); test: displacement of 125I-FGF-2 from soluble FGFR1-AP
[2] = target: soluble FGF receptor 1 (FGFR-1; flg) alkaline phosphatase fusion (FRAP) (murine) (UniProt P16092); test: chemical cross-linking of radiolabelled FGF to the soluble receptor, autoradiography
[3] = target: soluble FGF receptor 2 (FGFR-2; bek) alkaline phosphatase fusion (FRAP) (murine) (UniProt P21803); test: as above
[4] = target: FGF-receptor type 1 (FGFR1) present on NIH 3T3 cells (UniProt P16092); test: competition binding on NIH 3T3 cells

Measured: binding

fibroblast growth factor-2 (FGF-2), wild type (from UniProt P09038 1-155) (ligand)
binds: all assays above
